The campaign covered roughly 330,000 compounds. About 7,700 (2.3%) were called active. Inconclusive means that the source gave no clear call. Such entries were picked first, then a sample of the others. Calls come from the whole dose curve; as a rule, active = well fitted inhibition curve with a large enough effect; inconclusive = small, poorly fitted or top-dose-only effect, or effect the other way; inactive = flat fitted curve, though single readings scatter. A potency beside an inconclusive call is a rough fit, not a confirmed value.
assay: qHTS screen for small molecules that inhibit ELG1-dependent DNA repair in human embryonic kidney (HEK293T) cells expressing luciferase-tagged ELG1; details: HEK293T ELG1-luciferase reporter, luminescence, 16 h, DNA damage induced by 5-fluorouridine; activity change, negative = inhibition: at 46.1 µM (top of the series); note: nearly all actives have a fitted effect of over 55% in size
In short: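 Overnight (16 hr) co-exposure of 2,000 cells/well to 5-fluorouridine and compound at 37 °C preceded detection. Luciferase was quantified via ONE-Glo luminescence; loss of signal denotes inhibition.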
% is set by controls: 0 for no effect and ±100 for the full control effect; potency is the fitted concentration of half-maximal effect.

| SMILES | Potency | activity change, negative = inhibition |
| --- | --- | --- |
| CC(C)Cn1c(N)c(C(=O)COC(=O)c2ccc3c(c2)OCCO3)c(=O)n(C)c1=O | active: 7.08 µM | – |
| Brc1cc2c(cc1Br)OCCOCCOCCOCCO2 | – | inactive: -8.5% |
| Cc1ccc(S(=O)(=O)c2nnn3c2nc(NCCCN2CCCC2=O)c2ccccc23)cc1C | inconclusive: 20.6 µM [inhibitor, partial curve, poor fit] | – |
| O=C(O)CCn1cc(/C=C2/NC(=S)N(c3ccccc3)C2=O)c(-c2ccccc2)n1 | – | inactive: 2.56% |
| Cc1cc(C)nc(N/N=C/c2c(CO)cnc(C)c2O)n1 | inconclusive: 18.3 µM [inhibitor, single point] | – |
| COc1ccc(-n2nc(C(=O)NCC(=O)N3CCN(c4ccccc4F)CC3)c3ccccc3c2=O)cc1 | inconclusive: 5.8 µM [activator, single point] | – |
| CN(C)c1ccc(S(=O)(=O)NCC(=O)NCCC2=CCCCC2)cc1[N+](=O)[O-] | – | inactive: 8.83% |
| Cc1ccc(-c2nn(CCC#N)cc2C=C(C#N)C#N)cc1 | inconclusive: 5.17 µM [activator, partial curve, poor fit] | – |
| Cc1ccc(N/C=C2\CCCCC2=O)nc1 | inconclusive: 29.1 µM [activator, single point] | – |
| CCOC(=O)c1sc2nc(N3CCOCC3)c3c(c2c1N)CC(C)(C)N(C)C3 | inconclusive: 2.31 µM [inhibitor, partial curve, poor fit] | – |
| CCOC(=O)c1c(C)[nH]c(C(=O)COC(=O)C2CC2C)c1C (stereo not drawn) | inconclusive: 6.51 µM [activator, partial curve] | – |
| COc1ccc2[nH]c(C(=O)O)c(CCNC(=O)/C=C/c3ccc(O)c(OC)c3)c2c1 | inconclusive: 13 µM [activator, partial curve, poor fit] | – |
| CC(C)c1ccc(/C=C2\SC(N3CCCC3)=NC2=O)cc1 | – | inactive: -1.41% |
| Cc1cccc(C)c1OC(=O)CSc1nnc(-c2ccccc2O)o1 | inconclusive: 23.1 µM [activator, partial curve, poor fit] | – |
| COc1cccc(-c2cc(C(=O)N3CCCc4ccccc43)no2)c1 | inconclusive: 5.8 µM [activator, partial curve] | – |
| O=C(CSc1nc2ccccc2c(=O)n1NC(=O)Cc1ccccc1)NCc1ccccc1 | – | inactive: -8.2% |
| Cc1cc(S(=O)(=O)N(Cc2ccc(C(C)C)cc2)CC2CCCO2)ccc1-n1cnnn1 (stereo not drawn) | active: 16.4 µM | – |
| COc1ccc(C(=O)CSc2nnc(Cn3cnc4ccccc43)o2)cc1 | inconclusive: 3.26 µM [inhibitor, partial curve, poor fit] | – |
| CC1=CCC2C(=O)N(c3ccc(C)cc3)C(=O)C2C1 (stereo not drawn) | inconclusive: 25.9 µM [activator, partial curve, poor fit] | – |
| Cc1ccc(S(=O)(=O)NC(CC(C)C)C(=O)N2CCN(C/C=C/c3ccccc3)CC2)cc1 (stereo not drawn) | inconclusive: 35.5 µM [inhibitor, single point] | – |
| O=C(CCn1nc(-c2ccccc2)c2ccccc2c1=O)N1CCN(c2ccccc2)CC1 | inconclusive: 29.1 µM [inhibitor, single point] | – |
| O=C(Nc1cc2c3c(c1)CC(=O)N3CCC2)c1cccc(F)c1 | inconclusive: 2.06 µM [activator, partial curve, poor fit] | – |
| Cc1ccc(NS(=O)(=O)c2ccc(C(C)C)cc2)cc1S(=O)(=O)N1CCOCC1 | inconclusive: 4.61 µM [inhibitor, single point] | – |

| SMILES | Potency | activity change, negative = inhibition |
| --- | --- | --- |
| COc1ccc(Cl)cc1C(=O)Nc1ccccc1N1CCCCC1 | – | inactive: -25.8% |
| CCCCNC(=O)Nc1nc2ccccc2s1 | inconclusive: 16.4 µM [activator, partial curve] | – |
| COc1cccc(/C=N/N2CCOCC2)c1O | inconclusive: 16.4 µM [activator, partial curve] | – |
| CCN1/C(=C/C(=S)Nc2ccccc2)Sc2ccccc21 | inconclusive: 3.26 µM [activator, partial curve] | – |
| COc1ccc(-n2c(-c3ccccc3)c[n+]3c2CCC3)cc1 | inconclusive: 3.66 µM [inhibitor, full curve] | – |
| COc1ccc(-c2noc(CCC(=O)O)n2)cc1 | inconclusive: 20.6 µM [activator, single point] | – |
| COc1ccc(C(=O)OCC(=O)Nc2sccc2C(N)=O)cc1[N+](=O)[O-] | – | inactive: -5.48% |
| CC(C)OCCCNC(=O)c1ccccc1NC(=O)C1=CSCCO1 | – | inactive: -7.97% |
| CN1CCN(NC(=O)Nc2cc(Cl)cc(Cl)c2)CC1 | – | inactive: -8.27% |
| Cc1cc(C)c2cc(CN(CCO)C(=O)Nc3ccc(F)cc3)c(=O)[nH]c2c1 | inconclusive: 20.6 µM [inhibitor, partial curve] | – |
| O=C(Nc1cccnc1)c1ccc(Cl)c(S(=O)(=O)N2CCc3ccccc32)c1 | active: 13 µM | – |
| CCC(CC)C(=O)Nc1cccc(C(=O)Nc2ccc3c(c2)OCO3)c1 | inconclusive: 13 µM [activator, partial curve, poor fit] | – |
| Cc1ccc2nc(N3C(=O)C(O)=C(C(=O)c4ccc(C)o4)C3c3ccc(O)cc3)sc2c1 (stereo not drawn) | inconclusive: 29.1 µM [activator, single point] | – |
| Cc1ccc(NC(=O)c2oc3ccc(S(=O)(=O)N4CCOCC4)cc3c2C)c(C)c1 | inconclusive: 13 µM [activator, partial curve] | – |
| O=C(Nc1ccc(Oc2cccnc2)cc1)C1CCN(Cc2ccc(F)cc2)CC1 | inconclusive: 18.3 µM [inhibitor, single point] | – |
| Nc1cc(-c2ccncc2)c[nH]c1=O | inconclusive: 7.31 µM [inhibitor, partial curve] | – |
| Cc1cc(-c2nnc(-c3ccccc3)c(-c3ccccc3)n2)c(C)o1 | – | inactive: -20.9% |
| Cc1cc(C)c2c(N)c(-c3nnc(SCc4ccc(Cl)cc4)n3C)sc2n1 | – | inactive: -12.6% |
| O=C(/C=C/Nc1ccccc1O)c1ccco1 | inconclusive: 20.6 µM [activator, partial curve] | – |
| Cc1nc2cc(NC(=O)NCc3ccco3)ccc2o1 | inconclusive: 23.1 µM [activator, partial curve] | – |
| CCCN(CCC)c1nc(-c2ccccn2)nc2ccccc12 | inconclusive: 7.3 µM [inhibitor, partial curve] | – |
| O=C(NC1CCCCC1)N1CCN(c2ccc([N+](=O)[O-])cc2)CC1 | inconclusive: 14.6 µM [inhibitor, partial curve] | – |
| COc1ccc(OCCOC(=O)CNC(=O)c2ccc(Cl)cc2Cl)cc1 | inconclusive: 2.91 µM [inhibitor, single point] | – |

| SMILES | Potency | activity change, negative = inhibition |
| --- | --- | --- |
| O=[N+]([O-])c1cccc(/C=N/Nc2nc(C(Cl)(Cl)Cl)nc3ccccc23)c1 | inconclusive: 1.84 µM [inhibitor, full curve] | – |
| O=C(NCC(c1cccs1)N1CCOCC1)c1cc(-c2ccccn2)nc2ccccc12 (stereo not drawn) | inconclusive: 16.4 µM [inhibitor, single point] | – |
| CCc1nnc2n1N=C(c1ccc(Cl)cc1Cl)CS2 | – | inactive: 18.8% |
| Cc1cccc(Oc2coc3cc(OC(=O)c4cncc(Br)c4)ccc3c2=O)c1 | inconclusive: 14.6 µM [activator, partial curve] | – |
| CCOC(=O)c1c(NC(=O)CSc2nnc(C)s2)sc2c1CCC(CC)C2 (stereo not drawn) | inconclusive: 29.1 µM [inhibitor, single point] | – |
| CC(=O)N/C(=C/c1ccc(OS(=O)(=O)c2ccc(C)cc2)cc1)C(=O)NCCO | – | inactive: -6.6% |
| COc1ccccc1-n1cnc2cc(NCc3cccs3)ccc21 | inconclusive: 25.9 µM [activator, single point] | – |
| COc1ccc(NC(=O)c2cccc([N+](=O)[O-])c2)cc1 | inconclusive: 13 µM [activator, partial curve] | – |
| CC(=O)c1ccc(OCc2cc(C(=O)N3CCCCCCC3)no2)cc1 | – | inactive: 16.1% |
| CCCn1nc(NC(=O)c2ccco2)c2cc3ccccc3nc21 | inconclusive: 18.3 µM [inhibitor, single point] | – |
| Cc1[nH]c2ccccc2c1SCCNC(=O)c1ccc(S(=O)(=O)N2CCCC2)cc1 | inconclusive: 29.1 µM [inhibitor, single point] | – |
| COc1ccc(-n2c(C(C)n3nc(C)c([N+](=O)[O-])c3C)n[nH]c2=S)cc1 (stereo not drawn) | inconclusive: 23.1 µM [activator, single point] | – |
| Cc1cc(NC(=O)COc2coc(CN3CCN(c4ccccc4)CC3)cc2=O)no1 | inconclusive: 5.17 µM [activator, partial curve] | – |
| Cc1ccccc1CNC(=O)Cc1cccs1 | inconclusive: 25.9 µM [activator, partial curve] | – |
| CC1(C)CC(=O)N(c2cc(Cl)ccc2Cl)C(=O)C1 | inconclusive: 2.91 µM [activator, single point] | – |
| Cn1c(-c2ccc3c(c2)OCO3)cnc1NCc1ccccc1Cl | inconclusive: 18.3 µM [activator, partial curve] | – |
| Cc1ccc(NC(=S)NNC(=O)CSc2nc3ccccc3c(=O)n2-c2ccc(C)cc2)cc1 | – | inactive: -9.1% |
| Cc1cc(/C=N\NC(=O)c2cccs2)c(C)n1-c1ccc2ncccc2c1 | inconclusive: 25.9 µM [inhibitor, single point] | – |
| COc1ccc(-c2nnc(NC(=O)c3cc(C)on3)s2)cc1 | inconclusive: 23.1 µM [activator, single point] | – |
| CCc1ccc(C(=O)NN(C(=O)c2ccc(CC)cc2)C(C)(C)C)cc1 | – | inactive: -4.82% |
| CCOC(=O)c1ccc(Nc2ccc([N+](=O)[O-])cn2)cc1 | inconclusive: 5.17 µM [activator, full curve] | – |
| O=C(c1cc(-c2ccncc2)nc2ccc(Cl)cc12)N1CCN(Cc2ccc3c(c2)OCO3)CC1 | active: 14.6 µM | – |

Six of these compounds in a different format.
SMILES	Potency	activity change, negative = inhibition
Cc1ccc(NC(=S)NNC(=O)CSc2nc3ccccc3c(=O)n2-c2ccc(C)cc2)cc1	–	inactive: -9.1%
Cc1cc(/C=N\NC(=O)c2cccs2)c(C)n1-c1ccc2ncccc2c1	inconclusive: 25.9 µM [inhibitor, single point]	–
COc1ccc(-c2nnc(NC(=O)c3cc(C)on3)s2)cc1	inconclusive: 23.1 µM [activator, single point]	–
CCc1ccc(C(=O)NN(C(=O)c2ccc(CC)cc2)C(C)(C)C)cc1	–	inactive: -4.82%
CCOC(=O)c1ccc(Nc2ccc([N+](=O)[O-])cn2)cc1	inconclusive: 5.17 µM [activator, full curve]	–
O=C(c1cc(-c2ccncc2)nc2ccc(Cl)cc12)N1CCN(Cc2ccc3c(c2)OCO3)CC1	active: 14.6 µM	–
